Here are results for ten targets from the supplement of paper PMC11006884.

Chains of the proteins cited; added tags and fusions are not shown. Lines headed by an entry give the natural chain unless they say otherwise; changes in a name come on top.
UniProt Q9Y6Y0: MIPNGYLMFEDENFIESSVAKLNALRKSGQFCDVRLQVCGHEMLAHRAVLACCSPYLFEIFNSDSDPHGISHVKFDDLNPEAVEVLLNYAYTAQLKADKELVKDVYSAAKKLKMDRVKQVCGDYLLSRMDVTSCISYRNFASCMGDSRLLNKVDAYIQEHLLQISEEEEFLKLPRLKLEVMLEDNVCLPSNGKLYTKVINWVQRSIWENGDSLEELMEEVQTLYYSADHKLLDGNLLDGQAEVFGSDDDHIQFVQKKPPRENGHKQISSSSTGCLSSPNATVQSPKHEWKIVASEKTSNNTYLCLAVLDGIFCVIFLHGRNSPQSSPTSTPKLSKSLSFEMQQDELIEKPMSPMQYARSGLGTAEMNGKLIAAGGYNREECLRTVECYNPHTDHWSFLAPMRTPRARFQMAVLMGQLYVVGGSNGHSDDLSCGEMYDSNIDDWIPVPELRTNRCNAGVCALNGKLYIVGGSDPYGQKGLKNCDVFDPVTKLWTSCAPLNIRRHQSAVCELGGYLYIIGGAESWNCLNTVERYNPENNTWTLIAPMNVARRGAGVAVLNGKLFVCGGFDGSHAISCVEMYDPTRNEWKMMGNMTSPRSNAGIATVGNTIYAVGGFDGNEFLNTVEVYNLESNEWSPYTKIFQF
UniProt Q9Y490: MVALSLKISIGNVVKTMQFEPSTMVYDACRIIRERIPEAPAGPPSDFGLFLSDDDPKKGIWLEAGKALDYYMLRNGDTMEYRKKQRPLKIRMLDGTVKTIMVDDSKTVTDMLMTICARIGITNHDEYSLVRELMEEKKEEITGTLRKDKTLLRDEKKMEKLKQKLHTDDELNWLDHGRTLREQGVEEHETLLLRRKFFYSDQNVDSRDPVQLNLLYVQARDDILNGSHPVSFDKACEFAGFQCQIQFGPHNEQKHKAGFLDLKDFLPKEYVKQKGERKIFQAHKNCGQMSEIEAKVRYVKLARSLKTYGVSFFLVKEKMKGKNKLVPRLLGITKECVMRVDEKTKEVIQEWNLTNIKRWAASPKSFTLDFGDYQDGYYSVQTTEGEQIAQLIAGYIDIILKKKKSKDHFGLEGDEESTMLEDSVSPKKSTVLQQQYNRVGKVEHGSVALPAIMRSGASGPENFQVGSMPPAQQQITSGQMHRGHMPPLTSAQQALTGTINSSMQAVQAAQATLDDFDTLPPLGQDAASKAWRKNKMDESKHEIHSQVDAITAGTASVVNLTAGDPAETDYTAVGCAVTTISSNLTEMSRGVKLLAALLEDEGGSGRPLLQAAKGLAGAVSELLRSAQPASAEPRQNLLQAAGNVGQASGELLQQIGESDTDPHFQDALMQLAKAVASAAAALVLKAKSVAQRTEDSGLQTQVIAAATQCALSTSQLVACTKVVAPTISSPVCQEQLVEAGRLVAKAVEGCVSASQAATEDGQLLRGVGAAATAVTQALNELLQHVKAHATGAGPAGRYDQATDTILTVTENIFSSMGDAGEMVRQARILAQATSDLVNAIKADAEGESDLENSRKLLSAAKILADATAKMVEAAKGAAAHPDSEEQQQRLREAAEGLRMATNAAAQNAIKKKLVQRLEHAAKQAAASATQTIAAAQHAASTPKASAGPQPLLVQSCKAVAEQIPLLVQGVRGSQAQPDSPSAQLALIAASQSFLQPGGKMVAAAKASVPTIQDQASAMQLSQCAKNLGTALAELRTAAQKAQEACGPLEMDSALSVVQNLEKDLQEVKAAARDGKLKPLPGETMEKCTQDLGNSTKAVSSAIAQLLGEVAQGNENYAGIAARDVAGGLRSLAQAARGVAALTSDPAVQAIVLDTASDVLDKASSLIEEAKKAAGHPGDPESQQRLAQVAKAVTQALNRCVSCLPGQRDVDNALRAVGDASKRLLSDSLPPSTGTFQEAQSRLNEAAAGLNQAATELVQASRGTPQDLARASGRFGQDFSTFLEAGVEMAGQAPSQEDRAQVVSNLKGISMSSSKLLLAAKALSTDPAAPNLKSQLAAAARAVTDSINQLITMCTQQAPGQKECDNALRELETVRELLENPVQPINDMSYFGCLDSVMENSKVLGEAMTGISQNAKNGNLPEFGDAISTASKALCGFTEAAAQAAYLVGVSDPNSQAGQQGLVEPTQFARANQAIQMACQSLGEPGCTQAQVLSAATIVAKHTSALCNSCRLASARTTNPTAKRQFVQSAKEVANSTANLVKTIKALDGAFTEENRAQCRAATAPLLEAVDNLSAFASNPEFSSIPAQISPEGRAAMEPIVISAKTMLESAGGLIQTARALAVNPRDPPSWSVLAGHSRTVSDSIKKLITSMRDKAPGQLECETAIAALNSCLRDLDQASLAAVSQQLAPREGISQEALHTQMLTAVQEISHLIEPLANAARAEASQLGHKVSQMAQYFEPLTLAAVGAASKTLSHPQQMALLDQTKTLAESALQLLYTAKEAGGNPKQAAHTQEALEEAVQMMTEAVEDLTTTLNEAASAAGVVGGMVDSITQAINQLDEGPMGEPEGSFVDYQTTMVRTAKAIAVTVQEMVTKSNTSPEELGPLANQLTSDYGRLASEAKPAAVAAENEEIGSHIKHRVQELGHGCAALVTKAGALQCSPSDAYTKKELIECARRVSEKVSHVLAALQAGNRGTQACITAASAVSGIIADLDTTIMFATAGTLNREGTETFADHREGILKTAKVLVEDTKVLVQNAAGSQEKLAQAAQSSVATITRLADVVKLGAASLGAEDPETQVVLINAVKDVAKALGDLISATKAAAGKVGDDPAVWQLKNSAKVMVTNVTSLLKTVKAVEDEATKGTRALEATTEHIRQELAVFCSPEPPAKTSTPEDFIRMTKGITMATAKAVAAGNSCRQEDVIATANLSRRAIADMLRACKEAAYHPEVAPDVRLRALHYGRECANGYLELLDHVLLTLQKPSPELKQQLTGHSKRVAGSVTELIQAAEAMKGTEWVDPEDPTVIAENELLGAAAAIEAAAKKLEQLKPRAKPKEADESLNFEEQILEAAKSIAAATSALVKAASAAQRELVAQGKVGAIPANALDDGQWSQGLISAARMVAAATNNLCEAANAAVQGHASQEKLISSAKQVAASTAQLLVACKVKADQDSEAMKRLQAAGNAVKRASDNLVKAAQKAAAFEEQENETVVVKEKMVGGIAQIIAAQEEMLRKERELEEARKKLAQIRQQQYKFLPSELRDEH
UniProt Q9Y6W5, whole entry: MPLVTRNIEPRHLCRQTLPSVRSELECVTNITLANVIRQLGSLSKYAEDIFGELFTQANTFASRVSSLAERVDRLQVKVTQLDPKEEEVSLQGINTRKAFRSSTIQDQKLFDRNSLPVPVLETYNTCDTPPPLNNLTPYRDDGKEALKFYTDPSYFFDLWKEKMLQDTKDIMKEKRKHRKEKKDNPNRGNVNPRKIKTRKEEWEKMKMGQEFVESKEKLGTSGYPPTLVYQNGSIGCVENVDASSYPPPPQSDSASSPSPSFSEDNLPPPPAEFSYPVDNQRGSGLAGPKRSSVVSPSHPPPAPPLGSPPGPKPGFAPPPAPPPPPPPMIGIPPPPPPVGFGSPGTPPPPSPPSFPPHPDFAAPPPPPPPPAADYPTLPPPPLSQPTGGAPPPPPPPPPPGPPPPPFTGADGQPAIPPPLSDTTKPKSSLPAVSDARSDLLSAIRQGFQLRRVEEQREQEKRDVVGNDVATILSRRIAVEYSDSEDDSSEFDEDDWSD
UniProt Q9Y520: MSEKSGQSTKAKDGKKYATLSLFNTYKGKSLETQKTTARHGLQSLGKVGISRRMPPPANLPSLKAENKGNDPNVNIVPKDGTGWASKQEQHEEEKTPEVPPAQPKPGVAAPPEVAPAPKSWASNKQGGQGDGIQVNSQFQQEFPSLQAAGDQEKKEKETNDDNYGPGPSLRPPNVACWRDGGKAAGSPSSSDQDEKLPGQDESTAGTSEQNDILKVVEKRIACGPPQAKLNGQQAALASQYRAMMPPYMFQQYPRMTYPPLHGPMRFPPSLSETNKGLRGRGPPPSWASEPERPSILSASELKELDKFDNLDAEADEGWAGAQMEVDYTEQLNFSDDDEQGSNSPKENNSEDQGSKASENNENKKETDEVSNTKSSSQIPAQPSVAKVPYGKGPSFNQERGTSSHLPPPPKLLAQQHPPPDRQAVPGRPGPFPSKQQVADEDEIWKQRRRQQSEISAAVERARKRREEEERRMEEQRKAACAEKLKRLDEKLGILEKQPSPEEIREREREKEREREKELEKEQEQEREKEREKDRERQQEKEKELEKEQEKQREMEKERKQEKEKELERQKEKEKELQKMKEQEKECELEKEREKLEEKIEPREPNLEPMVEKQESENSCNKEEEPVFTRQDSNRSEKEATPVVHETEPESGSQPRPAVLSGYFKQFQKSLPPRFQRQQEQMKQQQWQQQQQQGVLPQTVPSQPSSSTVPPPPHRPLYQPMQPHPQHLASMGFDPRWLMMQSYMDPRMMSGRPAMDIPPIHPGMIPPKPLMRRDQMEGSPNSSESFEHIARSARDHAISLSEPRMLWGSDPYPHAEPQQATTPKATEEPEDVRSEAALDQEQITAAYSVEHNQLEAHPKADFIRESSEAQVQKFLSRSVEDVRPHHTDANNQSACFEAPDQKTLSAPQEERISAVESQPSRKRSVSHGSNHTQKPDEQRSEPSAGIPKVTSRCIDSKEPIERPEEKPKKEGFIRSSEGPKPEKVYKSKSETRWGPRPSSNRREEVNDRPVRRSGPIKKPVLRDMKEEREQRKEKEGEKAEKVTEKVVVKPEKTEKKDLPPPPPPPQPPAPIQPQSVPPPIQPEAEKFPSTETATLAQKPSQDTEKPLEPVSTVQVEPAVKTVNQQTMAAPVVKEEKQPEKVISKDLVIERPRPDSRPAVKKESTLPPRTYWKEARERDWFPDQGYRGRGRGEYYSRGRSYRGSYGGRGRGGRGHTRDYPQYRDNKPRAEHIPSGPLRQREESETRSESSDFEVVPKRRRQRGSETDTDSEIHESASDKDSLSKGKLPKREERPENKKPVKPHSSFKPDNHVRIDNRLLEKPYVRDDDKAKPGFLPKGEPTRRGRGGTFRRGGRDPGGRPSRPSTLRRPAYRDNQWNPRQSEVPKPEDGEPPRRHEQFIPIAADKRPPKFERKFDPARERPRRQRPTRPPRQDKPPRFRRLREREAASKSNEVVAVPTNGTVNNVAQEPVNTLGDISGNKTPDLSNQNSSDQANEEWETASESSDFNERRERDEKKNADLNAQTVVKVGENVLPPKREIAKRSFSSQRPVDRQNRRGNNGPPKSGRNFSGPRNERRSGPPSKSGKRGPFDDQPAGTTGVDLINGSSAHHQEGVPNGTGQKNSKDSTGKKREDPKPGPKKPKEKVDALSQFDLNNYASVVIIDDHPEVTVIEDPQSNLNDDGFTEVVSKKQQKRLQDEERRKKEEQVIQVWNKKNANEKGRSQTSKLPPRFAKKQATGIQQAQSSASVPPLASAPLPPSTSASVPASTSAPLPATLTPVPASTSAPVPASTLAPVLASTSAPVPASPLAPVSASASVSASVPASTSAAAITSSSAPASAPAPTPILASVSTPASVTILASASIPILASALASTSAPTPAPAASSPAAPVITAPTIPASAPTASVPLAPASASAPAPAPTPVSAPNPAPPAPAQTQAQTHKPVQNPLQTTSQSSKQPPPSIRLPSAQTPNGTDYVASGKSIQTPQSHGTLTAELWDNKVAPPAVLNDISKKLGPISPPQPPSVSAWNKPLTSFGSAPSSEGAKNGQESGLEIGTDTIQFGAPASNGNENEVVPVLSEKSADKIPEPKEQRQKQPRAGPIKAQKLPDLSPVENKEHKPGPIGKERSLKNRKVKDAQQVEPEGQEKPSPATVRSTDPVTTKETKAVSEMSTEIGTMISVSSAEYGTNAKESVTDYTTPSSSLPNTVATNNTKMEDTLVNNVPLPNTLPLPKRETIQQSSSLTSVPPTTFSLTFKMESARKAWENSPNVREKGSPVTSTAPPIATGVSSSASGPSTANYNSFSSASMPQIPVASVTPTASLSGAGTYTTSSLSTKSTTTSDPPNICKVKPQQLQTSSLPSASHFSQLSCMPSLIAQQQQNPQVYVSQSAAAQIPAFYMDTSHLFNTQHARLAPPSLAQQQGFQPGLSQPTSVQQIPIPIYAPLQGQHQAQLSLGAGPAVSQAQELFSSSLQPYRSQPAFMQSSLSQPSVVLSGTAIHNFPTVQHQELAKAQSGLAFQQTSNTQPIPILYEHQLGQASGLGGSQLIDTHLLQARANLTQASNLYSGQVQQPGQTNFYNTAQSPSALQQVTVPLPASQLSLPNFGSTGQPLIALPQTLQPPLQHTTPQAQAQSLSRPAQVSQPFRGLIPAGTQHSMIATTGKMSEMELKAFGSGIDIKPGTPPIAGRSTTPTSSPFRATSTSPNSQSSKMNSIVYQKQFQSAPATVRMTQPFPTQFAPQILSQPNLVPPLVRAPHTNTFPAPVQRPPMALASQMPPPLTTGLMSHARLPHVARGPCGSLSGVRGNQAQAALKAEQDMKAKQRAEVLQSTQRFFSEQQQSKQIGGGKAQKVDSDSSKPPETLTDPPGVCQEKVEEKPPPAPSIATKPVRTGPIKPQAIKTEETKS

The entries are a selection whose mix differs from that of the whole data set. This is a noisy data set.

Compound in this assay: COC(=O)/C=C/c1ccccc1 [methyl cinnamate]
The assay can be described thus: log2 ratio of iodoacetamide-alkyne labeling of the cysteine site, DMSO over compound (competition); higher = stronger covalent engagement of the cysteine by the compound, active = 1 or more. The note with it: 500 µM; treatment time 1 h; system: HEK293T cell lysate. The essentials:
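The log2 competition ratio per cysteine is defined as mean reporter intensity in control channels over mean reporter intensity in compound channels. Lysate from HEK293T cells (2 mg/mL) received electrophile (500 µM) or vehicle for 1 h at ambient temperature, followed by iodoacetamide alkyne for 1 h. Samples were clicked to sCIP-TMT reagents, pooled, trypsin-digested overnight at 37 °C, streptavidin-enriched, acid-eluted and run on Orbitrap Eclipse LC-MS/MS with FAIMS, with quantification in FragPipe. Three replicates with duplicate channels were used, and any cysteine quantified in only one replicate was excluded.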
With IVNS1ABP C274 (UniProt Q9Y6Y0), the “log2 ratio of iodoacetamide-alkyne labeling” value (“log2 ratio” below) was inactive: 0.573.

For TLN1 C29 (UniProt Q9Y490), the “log2 ratio” value was inactive: 0.0605.

TLN1 C1363 (UniProt Q9Y490): the “log2 ratio” value is inactive: 0.213.

For the target WASF2 C27 (UniProt Q9Y6W5), the “log2 ratio” value is inactive: -0.301.

For UniProt Q9Y678_C516, the “log2 ratio” value was inactive: 0.146.

As to LAS1L C504 (UniProt Q9Y4W2), the “log2 ratio” value was inactive: -0.0743.

Take TLN1 C1353 (UniProt Q9Y490): the “log2 ratio” value is inactive: 0.0465.

With UniProt Q9Y678_C129, the “log2 ratio” value is inactive: 0.236.

For the target TLN1 C1434 (UniProt Q9Y490), the “log2 ratio” value was inactive: -0.183.

On to UniProt Q9Y520_C2340, for which the “log2 ratio” value is inactive: 0.384.
